This is one part of the list.
Columns and labels:
Assay in all cases: log2 fold change, soluble protein after heating vs DMSO (PISA); higher = thermal stabilisation; K562 lysate, 10 uM; active = over 0.2 and 3.5 SD of the protein, either way, in both replicates (recomputed)
alvocidib = compound: CN1CC[C@H](c2c(O)cc(O)c3c(=O)cc(-c4ccccc4Cl)oc23)[C@H](O)C1 [alvocidib]
Summary of the method: (§1)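 A 30 min treatment with 10 μM compound was applied to crude K562 extract at 1 mg/mL protein in PBS pH 7.4 with 1 mM MgCl2. Heating for 3 min spanned 48°C-58°C, after which aliquots were pooled, adjusted to 0.5% NP-40 at 4°C and spun at 21,000xg for 90 min. TMTpro 16plex LC-MS/MS of the supernatant, with channel sums equalised, gave values recorded as log-two fold change in thermal stability against solvent controls, from duplicates.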

Protein sequences, listed by entry. Tags and fused reporters are not part of them. Lines headed by an entry give the natural chain unless they say otherwise; changes in a name come on top.
UniProt O14656: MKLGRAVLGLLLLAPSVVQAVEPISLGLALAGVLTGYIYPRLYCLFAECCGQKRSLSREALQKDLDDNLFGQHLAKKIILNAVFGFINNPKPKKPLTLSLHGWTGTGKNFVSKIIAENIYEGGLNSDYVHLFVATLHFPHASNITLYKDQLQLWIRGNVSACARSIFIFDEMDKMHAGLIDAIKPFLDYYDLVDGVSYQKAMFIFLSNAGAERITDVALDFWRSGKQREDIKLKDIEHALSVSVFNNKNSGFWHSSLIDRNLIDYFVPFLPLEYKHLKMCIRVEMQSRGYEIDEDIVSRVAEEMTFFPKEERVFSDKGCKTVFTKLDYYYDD
UniProt Q9NXH8: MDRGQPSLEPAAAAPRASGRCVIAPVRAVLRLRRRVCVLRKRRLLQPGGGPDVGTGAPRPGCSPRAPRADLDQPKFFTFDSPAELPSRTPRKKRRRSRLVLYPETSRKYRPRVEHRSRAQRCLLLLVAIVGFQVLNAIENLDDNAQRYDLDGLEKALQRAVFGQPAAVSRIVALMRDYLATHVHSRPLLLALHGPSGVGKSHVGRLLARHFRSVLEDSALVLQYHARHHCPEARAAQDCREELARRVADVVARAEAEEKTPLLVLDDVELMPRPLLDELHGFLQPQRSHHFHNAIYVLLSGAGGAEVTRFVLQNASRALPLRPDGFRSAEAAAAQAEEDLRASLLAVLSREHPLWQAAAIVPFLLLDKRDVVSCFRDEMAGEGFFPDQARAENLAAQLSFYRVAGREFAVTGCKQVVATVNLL
UniProt O94886: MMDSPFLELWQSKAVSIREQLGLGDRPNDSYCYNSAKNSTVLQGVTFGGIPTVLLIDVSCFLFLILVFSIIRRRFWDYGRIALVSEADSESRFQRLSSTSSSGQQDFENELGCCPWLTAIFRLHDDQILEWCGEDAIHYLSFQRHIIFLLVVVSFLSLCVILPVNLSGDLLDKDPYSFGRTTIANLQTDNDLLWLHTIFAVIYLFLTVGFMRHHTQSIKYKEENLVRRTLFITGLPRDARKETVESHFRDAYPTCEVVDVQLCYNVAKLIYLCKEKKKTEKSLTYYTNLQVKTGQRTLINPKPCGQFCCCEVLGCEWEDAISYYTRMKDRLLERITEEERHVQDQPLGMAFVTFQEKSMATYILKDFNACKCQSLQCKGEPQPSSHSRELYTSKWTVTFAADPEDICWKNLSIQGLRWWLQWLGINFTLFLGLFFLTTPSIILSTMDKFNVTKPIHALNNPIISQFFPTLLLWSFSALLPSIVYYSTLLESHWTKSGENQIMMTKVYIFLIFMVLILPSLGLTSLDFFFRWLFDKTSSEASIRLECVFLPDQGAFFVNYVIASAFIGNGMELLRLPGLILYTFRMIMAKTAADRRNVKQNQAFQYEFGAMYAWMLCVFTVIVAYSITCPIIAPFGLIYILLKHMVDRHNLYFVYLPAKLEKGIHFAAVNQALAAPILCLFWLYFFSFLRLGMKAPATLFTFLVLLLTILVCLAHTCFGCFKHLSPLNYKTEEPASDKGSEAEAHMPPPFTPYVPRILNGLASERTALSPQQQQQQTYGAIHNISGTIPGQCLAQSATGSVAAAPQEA
UniProt Q9BTV4: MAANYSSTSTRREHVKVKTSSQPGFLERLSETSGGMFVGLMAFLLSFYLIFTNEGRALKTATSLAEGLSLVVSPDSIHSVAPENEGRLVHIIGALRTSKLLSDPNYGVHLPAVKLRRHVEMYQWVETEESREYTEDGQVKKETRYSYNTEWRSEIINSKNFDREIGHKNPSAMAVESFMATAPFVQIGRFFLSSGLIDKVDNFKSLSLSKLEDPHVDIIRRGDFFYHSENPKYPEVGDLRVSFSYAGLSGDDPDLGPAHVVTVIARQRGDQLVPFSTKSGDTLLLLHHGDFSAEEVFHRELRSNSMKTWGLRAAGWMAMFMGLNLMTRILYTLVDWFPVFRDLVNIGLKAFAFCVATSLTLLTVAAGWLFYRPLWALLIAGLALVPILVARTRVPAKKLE
UniProt Q5JU69: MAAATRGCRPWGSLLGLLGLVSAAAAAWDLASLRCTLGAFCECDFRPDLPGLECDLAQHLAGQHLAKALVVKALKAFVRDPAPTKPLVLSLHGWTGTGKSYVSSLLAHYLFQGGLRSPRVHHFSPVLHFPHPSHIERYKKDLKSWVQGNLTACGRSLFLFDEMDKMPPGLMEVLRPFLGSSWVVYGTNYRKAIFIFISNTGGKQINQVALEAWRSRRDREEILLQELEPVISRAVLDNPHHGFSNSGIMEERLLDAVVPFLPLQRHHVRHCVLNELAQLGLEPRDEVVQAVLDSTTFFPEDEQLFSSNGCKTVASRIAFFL
UniProt A0PJW6: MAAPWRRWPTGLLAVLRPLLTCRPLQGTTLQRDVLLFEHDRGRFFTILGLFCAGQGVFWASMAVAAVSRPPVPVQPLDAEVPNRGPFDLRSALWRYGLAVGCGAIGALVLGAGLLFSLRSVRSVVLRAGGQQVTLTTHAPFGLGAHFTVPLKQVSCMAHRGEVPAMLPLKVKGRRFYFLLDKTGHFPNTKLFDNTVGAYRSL
UniProt Q8N511: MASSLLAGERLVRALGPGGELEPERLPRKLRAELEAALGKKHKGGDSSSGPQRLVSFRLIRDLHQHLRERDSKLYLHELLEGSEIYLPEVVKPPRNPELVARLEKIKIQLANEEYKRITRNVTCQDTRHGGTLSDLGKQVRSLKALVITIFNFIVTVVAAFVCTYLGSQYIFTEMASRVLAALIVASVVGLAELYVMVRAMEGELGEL
UniProt Q6ZVM7: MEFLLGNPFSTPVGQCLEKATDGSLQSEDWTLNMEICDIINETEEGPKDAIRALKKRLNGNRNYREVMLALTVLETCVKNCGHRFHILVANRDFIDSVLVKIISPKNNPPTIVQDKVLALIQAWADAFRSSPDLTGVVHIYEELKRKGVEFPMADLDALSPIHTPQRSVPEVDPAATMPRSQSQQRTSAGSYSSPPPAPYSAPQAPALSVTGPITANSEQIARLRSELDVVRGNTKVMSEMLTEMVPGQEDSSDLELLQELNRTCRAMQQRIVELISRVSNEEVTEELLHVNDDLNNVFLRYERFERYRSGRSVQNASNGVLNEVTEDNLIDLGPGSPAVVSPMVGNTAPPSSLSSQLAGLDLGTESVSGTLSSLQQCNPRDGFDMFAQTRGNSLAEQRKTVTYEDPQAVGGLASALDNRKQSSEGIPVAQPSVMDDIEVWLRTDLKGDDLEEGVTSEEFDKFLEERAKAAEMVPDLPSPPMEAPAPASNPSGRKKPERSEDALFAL
UniProt O95985: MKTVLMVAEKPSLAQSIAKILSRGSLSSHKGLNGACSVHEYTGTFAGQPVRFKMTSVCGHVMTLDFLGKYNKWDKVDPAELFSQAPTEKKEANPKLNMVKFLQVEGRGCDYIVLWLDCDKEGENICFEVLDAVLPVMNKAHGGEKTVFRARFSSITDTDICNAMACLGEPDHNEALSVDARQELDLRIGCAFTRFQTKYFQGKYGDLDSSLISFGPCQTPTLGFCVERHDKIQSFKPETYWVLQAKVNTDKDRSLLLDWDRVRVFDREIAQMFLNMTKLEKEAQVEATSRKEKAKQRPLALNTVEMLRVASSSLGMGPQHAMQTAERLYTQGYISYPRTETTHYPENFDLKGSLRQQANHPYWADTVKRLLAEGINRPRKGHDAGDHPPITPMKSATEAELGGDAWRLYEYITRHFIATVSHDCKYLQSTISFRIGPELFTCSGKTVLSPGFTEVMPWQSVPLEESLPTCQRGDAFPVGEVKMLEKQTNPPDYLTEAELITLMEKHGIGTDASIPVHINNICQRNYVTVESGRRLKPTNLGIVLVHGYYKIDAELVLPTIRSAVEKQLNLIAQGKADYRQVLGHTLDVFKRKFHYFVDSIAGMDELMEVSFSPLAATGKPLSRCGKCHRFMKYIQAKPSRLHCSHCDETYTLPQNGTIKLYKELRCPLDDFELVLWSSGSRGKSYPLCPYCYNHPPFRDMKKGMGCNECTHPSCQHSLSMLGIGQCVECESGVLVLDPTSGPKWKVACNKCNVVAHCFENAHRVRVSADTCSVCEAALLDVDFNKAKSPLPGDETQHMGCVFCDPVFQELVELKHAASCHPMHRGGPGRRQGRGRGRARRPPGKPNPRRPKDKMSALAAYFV
UniProt Q9NZR1: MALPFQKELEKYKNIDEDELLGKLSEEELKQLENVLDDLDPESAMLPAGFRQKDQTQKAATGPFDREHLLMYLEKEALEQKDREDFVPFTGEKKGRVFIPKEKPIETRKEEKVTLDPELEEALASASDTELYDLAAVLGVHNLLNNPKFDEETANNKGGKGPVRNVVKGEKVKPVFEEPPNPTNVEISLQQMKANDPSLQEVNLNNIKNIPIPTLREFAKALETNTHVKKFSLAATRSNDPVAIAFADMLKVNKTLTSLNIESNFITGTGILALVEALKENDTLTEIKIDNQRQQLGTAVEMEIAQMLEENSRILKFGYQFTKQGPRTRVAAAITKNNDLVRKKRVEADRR
UniProt Q12888: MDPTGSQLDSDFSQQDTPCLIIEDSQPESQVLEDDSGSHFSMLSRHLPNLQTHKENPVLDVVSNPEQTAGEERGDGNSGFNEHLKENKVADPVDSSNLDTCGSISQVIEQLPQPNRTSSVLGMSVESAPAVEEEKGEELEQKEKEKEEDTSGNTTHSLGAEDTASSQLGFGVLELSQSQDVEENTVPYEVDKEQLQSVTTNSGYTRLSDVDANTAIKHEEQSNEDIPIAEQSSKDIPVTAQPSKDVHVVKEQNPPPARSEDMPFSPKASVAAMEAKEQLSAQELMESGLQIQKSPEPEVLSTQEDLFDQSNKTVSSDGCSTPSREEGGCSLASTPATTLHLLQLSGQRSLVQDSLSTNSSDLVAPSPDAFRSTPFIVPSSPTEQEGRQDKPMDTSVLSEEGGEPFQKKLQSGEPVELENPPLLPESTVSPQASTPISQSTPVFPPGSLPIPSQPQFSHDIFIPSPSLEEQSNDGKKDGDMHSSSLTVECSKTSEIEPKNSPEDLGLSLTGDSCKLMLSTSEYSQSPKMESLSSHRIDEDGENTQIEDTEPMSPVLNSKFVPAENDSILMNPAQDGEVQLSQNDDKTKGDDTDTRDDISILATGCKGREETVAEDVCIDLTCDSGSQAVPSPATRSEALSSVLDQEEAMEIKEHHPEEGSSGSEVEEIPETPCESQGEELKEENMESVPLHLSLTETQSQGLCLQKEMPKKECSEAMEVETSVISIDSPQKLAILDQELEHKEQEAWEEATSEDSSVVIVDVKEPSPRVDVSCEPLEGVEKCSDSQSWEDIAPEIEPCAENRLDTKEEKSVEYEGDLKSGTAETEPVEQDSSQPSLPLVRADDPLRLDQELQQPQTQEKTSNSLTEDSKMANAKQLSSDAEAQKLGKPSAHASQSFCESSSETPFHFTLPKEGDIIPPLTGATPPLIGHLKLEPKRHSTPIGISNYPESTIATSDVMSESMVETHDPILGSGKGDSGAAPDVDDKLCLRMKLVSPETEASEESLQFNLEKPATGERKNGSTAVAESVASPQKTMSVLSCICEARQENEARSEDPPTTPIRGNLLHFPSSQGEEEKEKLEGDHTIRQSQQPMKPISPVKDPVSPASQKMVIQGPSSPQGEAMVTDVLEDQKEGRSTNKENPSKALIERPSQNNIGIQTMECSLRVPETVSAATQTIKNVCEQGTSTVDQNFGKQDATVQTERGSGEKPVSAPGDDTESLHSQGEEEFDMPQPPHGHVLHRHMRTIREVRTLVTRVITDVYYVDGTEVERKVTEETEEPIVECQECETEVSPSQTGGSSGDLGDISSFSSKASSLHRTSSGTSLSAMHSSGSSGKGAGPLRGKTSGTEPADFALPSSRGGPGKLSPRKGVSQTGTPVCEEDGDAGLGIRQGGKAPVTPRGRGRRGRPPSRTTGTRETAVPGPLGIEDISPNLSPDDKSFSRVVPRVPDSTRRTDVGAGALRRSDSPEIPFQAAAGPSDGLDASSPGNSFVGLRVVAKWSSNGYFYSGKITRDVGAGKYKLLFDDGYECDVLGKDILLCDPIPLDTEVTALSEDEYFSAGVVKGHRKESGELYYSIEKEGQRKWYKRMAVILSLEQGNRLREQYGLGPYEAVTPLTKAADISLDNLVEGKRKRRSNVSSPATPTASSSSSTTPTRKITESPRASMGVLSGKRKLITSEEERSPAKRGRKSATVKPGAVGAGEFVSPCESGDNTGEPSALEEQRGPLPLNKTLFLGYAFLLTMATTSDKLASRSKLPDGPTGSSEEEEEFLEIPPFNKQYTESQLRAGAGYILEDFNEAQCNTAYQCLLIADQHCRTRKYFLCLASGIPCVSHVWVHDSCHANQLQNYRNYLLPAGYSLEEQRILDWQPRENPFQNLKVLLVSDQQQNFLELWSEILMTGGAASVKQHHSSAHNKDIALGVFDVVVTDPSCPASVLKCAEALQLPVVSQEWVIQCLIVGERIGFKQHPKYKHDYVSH

Tubastatin A = compound: CN1CCc2c(c3ccccc3n2Cc2ccc(C(=O)NO)cc2)C1 [Tubastatin A]
Summary of the method: as §1

[1] = compound: CNC(=O)C1=CC=CC=C1NC2=NC(=NC=C2Cl)NC3=C(C=C(C=C3)N4CCOCC4)OC
Summary of the method: as §1

defactinib = compound: CNC(=O)c1ccc(Nc2ncc(C(F)(F)F)c(NCc3nccnc3N(C)S(C)(=O)=O)n2)cc1 [defactinib]
Summary of the method: as §1

[2] = compound: CNc1nc(-c2ccc3c(N)n[nH]c3c2)cc(N2C[C@@H](C(=O)NC3CCCCC3)CC[C@H]2C)n1
Summary of the method: as §1

encorafenib = compound: COC(=O)N[C@@H](C)CNc1nccc(-c2cn(C(C)C)nc2-c2cc(Cl)cc(NS(C)(=O)=O)c2F)n1 [encorafenib]
Summary of the method: as §1

[3] = compound: COC(=O)[C@H](CCSC)NC(=O)C1=C(C=C(C=C1)NC[C@H](CS)N)C2=CC=CC=C2
Summary of the method: as §1

alisertib = compound: COc1cc(Nc2ncc3c(n2)-c2ccc(Cl)cc2C(c2c(F)cccc2OC)=NC3)ccc1C(=O)O [alisertib]
Summary of the method: as §1

[4] = compound: COc1cc2nc(-c3cc(F)ccc3O)nc(N[C@@H]3CNC[C@H]3C(C)(C)O)c2cc1OC
Summary of the method: as §1

gefitinib = compound: COc1cc2ncnc(Nc3ccc(F)c(Cl)c3)c2cc1OCCCN1CCOCC1 [gefitinib]
Summary of the method: as §1

Measured: log2 fold change

TMEM59 (UniProt Q9BXS4)
inactive: alvocidib -0.011 | Tubastatin A 0.138

TOR1A (UniProt O14656)
inactive: alvocidib -0.009 | Tubastatin A 0.045 | [1] 0.005 | defactinib 0.009 | [2] 0.004 | encorafenib 0.034 | [3] 0 | alisertib 0.036 | [4] 0.025 | gefitinib 0.007

TNFSF9 (UniProt P41273)
inactive: alvocidib -0.146

TNK2 isoform 3 (UniProt Q07912)
inactive: alvocidib 0.05 | Tubastatin A -0.402

TMEM70 (UniProt Q9BUB7)
inactive: alvocidib -0.037 | Tubastatin A -0.015 | [1] -0.025 | defactinib -0.001 | [2] -0.056 | encorafenib 0.021 | [3] -0.002 | alisertib 0.024 | [4] -0.041 | gefitinib -0.036

TP53BP2 isoform 3 (UniProt Q13625)
inactive: alvocidib 0.047 | Tubastatin A -0.032 | [1] 0.038 | defactinib -0.006 | [2] -0.018 | encorafenib 0.007 | [3] 0.025 | alisertib 0.007 | [4] -0.02 | gefitinib 0.076

TOLLIP (UniProt Q9H0E2)
inactive: alvocidib -0.013 | Tubastatin A -0.007 | [1] -0.016 | defactinib 0.005 | [2] 0.052 | encorafenib 0.046 | [3] 0.02 | alisertib -0.021 | [4] 0.008 | gefitinib 0.067

TPM1 (UniProt H7BYY1)
inactive: alvocidib 0.027 | Tubastatin A 0.092 | [1] 0.007 | defactinib 0 | [2] 0.022 | encorafenib 0.056 | [3] -0.023 | alisertib -0.048 | [4] -0.04 | gefitinib 0.076

TOR4A (UniProt Q9NXH8)
inactive: alvocidib 0.046 | Tubastatin A -0.029 | [1] -0.015 | defactinib 0.032 | [2] 0 | encorafenib 0.059 | [3] -0.036 | alisertib -0.017 | [4] -0.008 | gefitinib 0

TPM3 isoform 2 (UniProt P06753)
inactive: alvocidib 0.03 | Tubastatin A 0.033 | [1] -0.012 | defactinib 0 | [2] -0.144 | encorafenib 0 | [3] -0.071 | alisertib 0 | [4] -0.024 | gefitinib 0.059

TRA2A (UniProt Q13595)
inactive: alvocidib -0.007 | Tubastatin A -0.079 | [1] -0.033 | defactinib 0.171 | [2] 0.031 | encorafenib -0.017 | [3] 0.068 | alisertib -0.188 | [4] 0.017 | gefitinib 0.118

TMEM30A (UniProt Q9NV96)
inactive: alvocidib 0.004 | Tubastatin A -0.018 | [1] 0 | defactinib 0.045 | [2] 0.152 | encorafenib 0.012 | [3] -0.036 | alisertib 0.08 | [4] 0.011 | gefitinib 0

TMEM63A (UniProt O94886)
inactive: alvocidib -0.001 | Tubastatin A 0.053 | [1] 0.007 | defactinib -0.046 | [2] -0.127 | encorafenib 0.044 | [3] -0.068 | alisertib 0.045 | [4] 0.013 | gefitinib -0.073

TMEM43 (UniProt Q9BTV4)
inactive: alvocidib -0.013 | Tubastatin A 0.016 | [1] -0.002 | defactinib -0.003 | [2] -0.034 | encorafenib 0.034 | [3] -0.009 | alisertib -0.007 | [4] -0.031 | gefitinib 0.003

TOR2A (UniProt Q5JU69)
inactive: alvocidib -0.087 | Tubastatin A -0.034 | [1] 0.011 | defactinib 0.011 | [2] 0.081 | encorafenib -0.055 | [3] -0.072 | alisertib -0.05 | [4] 0.051 | gefitinib 0.088

TMEM214 (UniProt Q6NUQ4)
inactive: alvocidib 0.091 | Tubastatin A -0.052 | [1] -0.013 | defactinib 0.007 | [2] -0.035 | encorafenib 0.011 | [3] -0.184 | alisertib 0.021 | [4] 0.022 | gefitinib 0.004

TMEM223 (UniProt A0PJW6)
inactive: alvocidib 0.046 | Tubastatin A -0.198 | [1] -0.006 | defactinib 0.045 | [2] -0.166 | encorafenib 0.063 | [3] -0.219 | alisertib 0.002 | [4] -0.097 | gefitinib 0.068

TMEM199 (UniProt Q8N511)
inactive: alvocidib -0.032 | Tubastatin A 0.097 | [1] -0.035 | defactinib -0.023 | [2] -0.001 | encorafenib -0.011 | [3] -0.093 | alisertib 0 | [4] -0.007 | gefitinib 0.001

TOM1L2 (UniProt Q6ZVM7)
inactive: alvocidib -0.104 | Tubastatin A -0.01 | [1] 0.072 | defactinib 0 | [2] -0.006 | encorafenib 0.05 | [3] -0.019 | alisertib 0.016 | [4] 0 | gefitinib 0.037

TPP1 (UniProt O14773)
inactive: alvocidib 0.014 | Tubastatin A -0.077 | [1] 0.01 | defactinib 0.057 | [2] -0.003 | encorafenib 0.004 | [3] 0.046 | alisertib 0.029 | [4] 0.019 | gefitinib -0.002

TOP2B isoform 2 (UniProt Q02880)
inactive: alvocidib 0.092 | Tubastatin A -0.039 | [1] 0.042 | defactinib 0.031 | [2] 0.009 | encorafenib 0.021 | [3] 0.034 | alisertib -0.006 | [4] -0.011 | gefitinib -0.006

TONSL (UniProt Q96HA7)
inactive: alvocidib -0.106 | Tubastatin A -0.155 | [1] -0.004 | defactinib 0.05 | [2] -0.03 | encorafenib 0.063 | [3] 0.138 | alisertib -0.024 | [4] -0.006 | gefitinib -0.017

TPP2 (UniProt Q5VZU9)
inactive: alvocidib -0.099 | Tubastatin A -0.121 | [1] 0.092 | defactinib 0.062 | [2] 0.068 | encorafenib -0.076 | [3] 0.058 | alisertib 0.006 | [4] 0.076 | gefitinib 0.011

TPM1 isoform 4 (UniProt P09493)
inactive: alvocidib 0.017 | Tubastatin A 0.073 | [1] -0.013 | defactinib -0.031 | [2] -0.12 | encorafenib 0.02 | [3] -0.088 | alisertib 0.035 | [4] -0.012 | gefitinib 0.008

TOP3B (UniProt O95985)
inactive: alvocidib -0.005 | Tubastatin A -0.055 | [1] 0.014 | defactinib 0.008 | [2] 0.041 | encorafenib 0.032 | [3] -0.181 | alisertib -0.023 | [4] 0.018 | gefitinib -0.019

TPM3 (UniProt P06753)
inactive: alvocidib 0.048 | Tubastatin A 0.049 | [1] -0.015 | defactinib 0.044 | [2] -0.003 | encorafenib -0.048 | [3] -0.02 | alisertib -0.007 | [4] 0 | gefitinib 0.008

TMOD2 (UniProt Q9NZR1)
inactive: alvocidib -0.017 | Tubastatin A -0.007 | [1] 0.006 | defactinib -0.016 | [2] -0.007 | encorafenib 0.018 | [3] 0.012 | alisertib 0.023 | [4] -0.016 | gefitinib -0.018

Two successive records out of the list so far, for reference:
TPM1 isoform 4 (UniProt P09493)
inactive: alvocidib 0.017 | Tubastatin A 0.073 | [1] -0.013 | defactinib -0.031 | [2] -0.12 | encorafenib 0.02 | [3] -0.088 | alisertib 0.035 | [4] -0.012 | gefitinib 0.008

TOP3B (UniProt O95985)
inactive: alvocidib -0.005 | Tubastatin A -0.055 | [1] 0.014 | defactinib 0.008 | [2] 0.041 | encorafenib 0.032 | [3] -0.181 | alisertib -0.023 | [4] 0.018 | gefitinib -0.019

(list continues)

TP53BP1 isoform 2 (UniProt Q12888)
inactive: alvocidib -0.002 | Tubastatin A -0.001 | [1] -0.002 | defactinib -0.006 | [2] -0.006 | encorafenib 0.017 | [3] -0.011 | alisertib -0.017 | [4] 0.021 | gefitinib 0.028

TNKS (UniProt O95271)
inactive: alvocidib -0.223 | Tubastatin A -0.087 | [1] 0.04 | defactinib -0.013 | [2] -0.031 | encorafenib -0.078 | [3] 0.022 | alisertib -0.002 | [4] -0.072 | gefitinib -0.069
